Results are given in words; binding and its absence hold for the method and conditions named. Binding can be weak; no strength is given.

We go through one molecule from patent US20140255407A1 (MacroGenics, published 2014).

In experiment [1] the target is soluble canine B7-H3 with 6xHis tag at the carboxy terminus (canine). Kind of experiment: SPR, B7H3(4Ig)-His captured on anti-His surface, mAb 6.25-100 nM. A general note: In SPR one partner is held on a chip, and binding of the other changes the refractive index at the surface.
The target is the same in experiment [2]. Kind of experiment: ELISA, plates coated with soluble B7-H3-His. (ELISA stands for enzyme-linked immunosorbent assay.)

B1: hBRCA69D (humanized antibody BRCA69D) (antibody, V domains shown)
VH: QVQLVQSGAEVKKPGASVKVSCKASGYTFTSYWMQWVRQAPGQGLEWMGTIYPGDGDTRYTQKFKGRVTITADKSTSTAYMELSSLRSEDTAVYYCARRGIPRLWYFDVWGQGTTVTVSS
VL: DIQMTQSPSSLSASVGDRVTITCRASQDISNYLNWYQQKPGKAPKLLIYYTSRLHSGVPSRFSGSGSGTDFTLTISSLQPEDIATYYCQQGNTLPPTFGGGTKLEIK
notes: Residue limits are my derivation
Turning to B1, the binding result in experiment [1] and in experiment [2] was “binds” in each case.
